# In the supplement of paper PMC10849652:
# The chains behind the UniProt entries cited, without tags or fusion partners. Where a name states a change or a piece, a line headed by the entry shows the natural chain unless it says otherwise.
# UniProt Q9NP58: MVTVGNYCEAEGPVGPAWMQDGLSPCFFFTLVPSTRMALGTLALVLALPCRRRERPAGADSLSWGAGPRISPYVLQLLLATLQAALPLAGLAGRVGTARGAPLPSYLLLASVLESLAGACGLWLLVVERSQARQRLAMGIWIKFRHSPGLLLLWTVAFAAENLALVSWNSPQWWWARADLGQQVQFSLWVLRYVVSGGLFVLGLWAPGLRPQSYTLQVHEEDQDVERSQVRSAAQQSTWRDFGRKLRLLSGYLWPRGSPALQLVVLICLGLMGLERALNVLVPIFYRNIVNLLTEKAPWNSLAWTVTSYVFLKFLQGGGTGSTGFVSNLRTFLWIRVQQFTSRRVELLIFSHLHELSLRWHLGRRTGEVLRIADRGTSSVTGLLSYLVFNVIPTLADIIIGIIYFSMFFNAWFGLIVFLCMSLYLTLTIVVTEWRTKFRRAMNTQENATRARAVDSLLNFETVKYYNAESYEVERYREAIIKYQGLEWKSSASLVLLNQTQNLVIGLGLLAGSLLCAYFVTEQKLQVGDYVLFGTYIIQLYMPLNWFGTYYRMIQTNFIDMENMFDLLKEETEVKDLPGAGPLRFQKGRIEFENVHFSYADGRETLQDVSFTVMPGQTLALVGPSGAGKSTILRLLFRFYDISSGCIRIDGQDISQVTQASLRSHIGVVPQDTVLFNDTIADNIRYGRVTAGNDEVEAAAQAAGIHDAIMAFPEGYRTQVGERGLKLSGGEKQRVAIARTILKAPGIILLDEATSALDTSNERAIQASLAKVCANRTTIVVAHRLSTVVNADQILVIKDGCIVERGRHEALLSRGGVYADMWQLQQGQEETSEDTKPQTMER
# UniProt Q13685: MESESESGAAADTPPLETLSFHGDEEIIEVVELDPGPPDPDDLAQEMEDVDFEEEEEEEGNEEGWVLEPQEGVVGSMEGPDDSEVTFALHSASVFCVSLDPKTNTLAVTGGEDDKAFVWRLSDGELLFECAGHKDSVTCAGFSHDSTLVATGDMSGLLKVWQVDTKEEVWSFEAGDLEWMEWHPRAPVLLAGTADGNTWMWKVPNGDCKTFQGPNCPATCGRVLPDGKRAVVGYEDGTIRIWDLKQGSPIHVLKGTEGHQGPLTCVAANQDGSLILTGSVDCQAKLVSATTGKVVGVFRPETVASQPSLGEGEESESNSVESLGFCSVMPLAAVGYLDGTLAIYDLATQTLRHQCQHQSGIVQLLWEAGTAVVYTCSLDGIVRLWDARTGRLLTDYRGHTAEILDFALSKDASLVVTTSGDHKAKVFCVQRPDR
# UniProt Q96QU6: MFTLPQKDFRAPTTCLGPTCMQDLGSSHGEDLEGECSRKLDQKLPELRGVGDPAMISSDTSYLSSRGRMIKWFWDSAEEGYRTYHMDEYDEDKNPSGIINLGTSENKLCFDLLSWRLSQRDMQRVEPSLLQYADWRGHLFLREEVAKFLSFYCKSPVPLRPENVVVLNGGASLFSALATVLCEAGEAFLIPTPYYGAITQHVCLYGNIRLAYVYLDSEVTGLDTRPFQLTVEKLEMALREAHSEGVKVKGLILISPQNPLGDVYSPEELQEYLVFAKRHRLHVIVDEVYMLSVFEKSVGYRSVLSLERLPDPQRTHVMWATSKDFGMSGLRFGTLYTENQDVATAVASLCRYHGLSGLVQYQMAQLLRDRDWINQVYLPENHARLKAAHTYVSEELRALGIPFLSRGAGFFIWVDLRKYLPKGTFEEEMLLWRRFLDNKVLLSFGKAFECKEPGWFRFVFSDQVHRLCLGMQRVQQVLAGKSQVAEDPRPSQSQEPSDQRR
# UniProt Q9H7C9: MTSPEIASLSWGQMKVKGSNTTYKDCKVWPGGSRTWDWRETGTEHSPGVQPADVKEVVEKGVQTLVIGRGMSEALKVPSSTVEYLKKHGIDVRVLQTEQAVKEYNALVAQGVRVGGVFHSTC
# UniProt Q9NPJ3: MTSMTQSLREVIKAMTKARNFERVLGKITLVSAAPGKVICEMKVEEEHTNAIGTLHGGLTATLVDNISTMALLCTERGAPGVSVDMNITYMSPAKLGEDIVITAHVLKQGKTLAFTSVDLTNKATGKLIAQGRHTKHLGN
# UniProt Q15057: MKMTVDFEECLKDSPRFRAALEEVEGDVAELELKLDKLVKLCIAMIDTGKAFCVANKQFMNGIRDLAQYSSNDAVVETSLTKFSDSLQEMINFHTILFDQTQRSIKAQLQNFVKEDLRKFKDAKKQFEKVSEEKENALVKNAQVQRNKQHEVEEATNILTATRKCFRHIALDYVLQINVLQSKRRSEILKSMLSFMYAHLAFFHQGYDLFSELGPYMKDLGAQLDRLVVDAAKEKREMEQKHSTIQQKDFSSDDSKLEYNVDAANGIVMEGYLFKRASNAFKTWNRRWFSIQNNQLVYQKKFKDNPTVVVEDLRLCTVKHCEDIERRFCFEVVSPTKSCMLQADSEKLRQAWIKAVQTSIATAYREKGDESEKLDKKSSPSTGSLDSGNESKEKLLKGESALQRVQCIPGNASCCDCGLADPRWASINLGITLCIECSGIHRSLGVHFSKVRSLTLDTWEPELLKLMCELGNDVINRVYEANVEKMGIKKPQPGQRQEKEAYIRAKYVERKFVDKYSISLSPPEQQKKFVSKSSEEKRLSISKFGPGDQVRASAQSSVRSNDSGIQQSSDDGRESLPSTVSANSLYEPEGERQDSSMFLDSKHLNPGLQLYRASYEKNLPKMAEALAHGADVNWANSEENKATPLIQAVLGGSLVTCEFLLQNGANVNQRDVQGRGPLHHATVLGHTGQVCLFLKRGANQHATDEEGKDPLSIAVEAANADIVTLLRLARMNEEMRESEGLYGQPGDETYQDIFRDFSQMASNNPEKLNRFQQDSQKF
# UniProt P33527: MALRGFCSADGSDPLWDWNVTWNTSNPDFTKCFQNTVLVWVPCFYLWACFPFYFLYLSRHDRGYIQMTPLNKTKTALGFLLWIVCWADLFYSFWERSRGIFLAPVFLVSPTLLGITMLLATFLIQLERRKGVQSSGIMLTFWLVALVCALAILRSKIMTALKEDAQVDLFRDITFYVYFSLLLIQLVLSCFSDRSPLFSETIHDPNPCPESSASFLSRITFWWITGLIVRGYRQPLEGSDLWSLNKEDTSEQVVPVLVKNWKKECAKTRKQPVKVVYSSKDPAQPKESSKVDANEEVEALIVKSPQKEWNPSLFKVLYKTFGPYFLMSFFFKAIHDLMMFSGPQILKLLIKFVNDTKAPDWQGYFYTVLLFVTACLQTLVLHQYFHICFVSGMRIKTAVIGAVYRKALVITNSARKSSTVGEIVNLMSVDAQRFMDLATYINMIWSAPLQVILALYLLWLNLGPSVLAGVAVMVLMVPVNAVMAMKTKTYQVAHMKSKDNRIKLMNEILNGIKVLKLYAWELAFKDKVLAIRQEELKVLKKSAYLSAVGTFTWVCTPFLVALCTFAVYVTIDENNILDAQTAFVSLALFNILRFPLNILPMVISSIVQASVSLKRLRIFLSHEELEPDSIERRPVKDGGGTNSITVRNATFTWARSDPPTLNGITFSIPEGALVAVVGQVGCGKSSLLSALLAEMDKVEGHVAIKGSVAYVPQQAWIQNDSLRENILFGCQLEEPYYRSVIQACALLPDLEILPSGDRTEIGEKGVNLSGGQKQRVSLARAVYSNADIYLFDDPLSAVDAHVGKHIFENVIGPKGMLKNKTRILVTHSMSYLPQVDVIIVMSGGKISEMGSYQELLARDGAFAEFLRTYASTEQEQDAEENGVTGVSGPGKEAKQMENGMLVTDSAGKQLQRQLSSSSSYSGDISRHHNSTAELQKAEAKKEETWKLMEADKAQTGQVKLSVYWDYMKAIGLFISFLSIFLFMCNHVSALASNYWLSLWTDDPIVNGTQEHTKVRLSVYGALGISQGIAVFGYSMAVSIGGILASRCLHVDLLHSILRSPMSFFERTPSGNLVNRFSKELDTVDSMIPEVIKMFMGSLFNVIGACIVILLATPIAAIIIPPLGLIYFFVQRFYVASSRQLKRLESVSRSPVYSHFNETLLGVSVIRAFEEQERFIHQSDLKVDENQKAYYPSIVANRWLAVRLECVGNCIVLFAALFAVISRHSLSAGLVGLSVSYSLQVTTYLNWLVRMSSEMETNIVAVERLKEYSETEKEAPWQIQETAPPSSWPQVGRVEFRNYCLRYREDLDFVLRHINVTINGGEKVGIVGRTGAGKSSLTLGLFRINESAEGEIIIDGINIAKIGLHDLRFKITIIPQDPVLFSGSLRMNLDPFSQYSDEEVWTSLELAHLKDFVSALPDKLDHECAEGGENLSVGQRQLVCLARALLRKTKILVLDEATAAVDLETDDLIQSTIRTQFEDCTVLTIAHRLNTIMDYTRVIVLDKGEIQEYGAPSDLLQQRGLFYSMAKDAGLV
# UniProt O95870: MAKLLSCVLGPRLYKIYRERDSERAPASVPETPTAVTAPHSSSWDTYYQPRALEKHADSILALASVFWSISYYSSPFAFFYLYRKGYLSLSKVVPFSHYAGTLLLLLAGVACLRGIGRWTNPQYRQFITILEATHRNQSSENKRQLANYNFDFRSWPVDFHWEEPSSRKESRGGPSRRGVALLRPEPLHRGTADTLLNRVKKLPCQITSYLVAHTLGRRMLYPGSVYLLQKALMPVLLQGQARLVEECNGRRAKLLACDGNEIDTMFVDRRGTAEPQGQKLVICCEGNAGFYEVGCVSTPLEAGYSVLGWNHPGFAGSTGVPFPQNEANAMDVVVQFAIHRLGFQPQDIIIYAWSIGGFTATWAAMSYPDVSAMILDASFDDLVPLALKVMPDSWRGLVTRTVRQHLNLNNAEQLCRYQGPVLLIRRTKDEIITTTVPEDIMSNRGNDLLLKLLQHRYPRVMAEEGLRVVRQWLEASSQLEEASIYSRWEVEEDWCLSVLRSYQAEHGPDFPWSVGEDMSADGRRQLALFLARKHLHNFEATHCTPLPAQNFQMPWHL
# UniProt Q9NRG9: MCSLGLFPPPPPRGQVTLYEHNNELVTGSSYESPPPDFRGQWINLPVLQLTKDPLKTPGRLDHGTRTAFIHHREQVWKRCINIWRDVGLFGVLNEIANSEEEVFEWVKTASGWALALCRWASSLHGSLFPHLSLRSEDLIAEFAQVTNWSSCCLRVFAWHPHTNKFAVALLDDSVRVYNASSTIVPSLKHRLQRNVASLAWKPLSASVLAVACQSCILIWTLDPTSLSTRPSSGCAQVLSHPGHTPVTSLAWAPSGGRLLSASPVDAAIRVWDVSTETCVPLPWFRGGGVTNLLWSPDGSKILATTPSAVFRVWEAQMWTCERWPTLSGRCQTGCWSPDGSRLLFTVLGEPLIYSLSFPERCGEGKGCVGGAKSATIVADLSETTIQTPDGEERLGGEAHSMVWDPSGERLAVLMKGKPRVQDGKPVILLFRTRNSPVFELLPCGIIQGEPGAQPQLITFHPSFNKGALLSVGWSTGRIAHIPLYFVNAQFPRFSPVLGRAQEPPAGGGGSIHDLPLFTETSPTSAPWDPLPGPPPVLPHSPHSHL
# UniProt Q9NUJ1: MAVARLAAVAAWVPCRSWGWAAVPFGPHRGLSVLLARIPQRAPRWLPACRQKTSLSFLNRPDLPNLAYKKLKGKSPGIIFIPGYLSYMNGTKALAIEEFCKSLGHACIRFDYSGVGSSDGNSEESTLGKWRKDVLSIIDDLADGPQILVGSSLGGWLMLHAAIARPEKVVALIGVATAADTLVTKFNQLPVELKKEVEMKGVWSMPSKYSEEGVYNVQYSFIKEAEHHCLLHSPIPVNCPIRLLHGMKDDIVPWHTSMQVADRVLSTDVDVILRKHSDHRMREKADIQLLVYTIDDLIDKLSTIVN
# UniProt P28288: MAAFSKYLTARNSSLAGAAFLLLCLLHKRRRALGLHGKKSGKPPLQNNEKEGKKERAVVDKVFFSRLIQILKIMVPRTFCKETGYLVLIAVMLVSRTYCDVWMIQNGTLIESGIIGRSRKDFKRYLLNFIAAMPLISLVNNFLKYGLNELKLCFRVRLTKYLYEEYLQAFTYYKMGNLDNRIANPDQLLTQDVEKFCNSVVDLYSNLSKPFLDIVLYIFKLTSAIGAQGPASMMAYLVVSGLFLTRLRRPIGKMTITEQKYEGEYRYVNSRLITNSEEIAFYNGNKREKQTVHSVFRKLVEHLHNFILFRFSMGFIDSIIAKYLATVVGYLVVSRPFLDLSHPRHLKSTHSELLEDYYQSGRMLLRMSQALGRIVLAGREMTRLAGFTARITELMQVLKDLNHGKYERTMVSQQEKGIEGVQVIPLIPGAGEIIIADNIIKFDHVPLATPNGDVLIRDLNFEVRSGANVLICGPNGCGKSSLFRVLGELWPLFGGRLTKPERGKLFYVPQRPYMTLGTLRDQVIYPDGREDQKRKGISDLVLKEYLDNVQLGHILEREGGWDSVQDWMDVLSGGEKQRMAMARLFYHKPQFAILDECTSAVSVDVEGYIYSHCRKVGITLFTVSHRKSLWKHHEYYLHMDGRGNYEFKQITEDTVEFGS
# The list shows a part of the results.
# Key:
# Test in all cases: log2 fold change, soluble protein after heating vs DMSO (PISA); higher = thermal stabilisation; K562 lysate, 10 uM; active = over 0.2 and 3.5 SD of the protein, either way, in both replicates (recomputed)
# erlotinib = compound: C#Cc1cccc(Nc2ncnc3cc(OCCOC)c(OCCOC)cc23)c1 [erlotinib]
# In short: (§1)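 The values are log-two fold changes in thermal stability compared with solvent controls and come from duplicates. They were obtained by TMTpro 16plex LC-MS/MS, with channel sums equalised, on the supernatant after 21,000xg for 90 min. That supernatant came from crude K562 extract at 1 mg/mL protein treated with 10 μM compound for 30 min, heated for 3 min across 48°C-58°C, pooled and brought to 0.5% NP-40 at 4°C.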
# [1] = compound: C/C(=N\NC(=O)C1=CC(=CC=C1)S(=O)(=O)N2CCOCC2)/C3=C(C=CC(=C3)Cl)O
# In short: as §1
# [2] = compound: C1=CC(=CC=C1C2=NC3=C(N2)C=C(C=C3)C(=O)N)OC4=CC=C(C=C4)Cl
# In short: as §1
# [3] = compound: C1=CC2=C(C=CC(=C2)/C=C\3/C(=O)NC(=NCC4=CC=CS4)S3)N=C1
# In short: as §1
# [4] = compound: C1=CC2=NC=CN=C2C=C1/C=C/3\C(=O)NC(=O)S3
# In short: as §1
# [5] = compound: C1=CC=C(C=C1)C2=NC(=C(N2)C3=CC=NC=C3)C4=CC(=C(C=C4)Cl)O
# In short: as §1
# [6] = compound: C1=CC=C2C(=C1)C3=NNC4=CC=CC(=C43)C2=O
# In short: as §1
# [7] = compound: C1CCN(C1)C(=O)NC2=CC=CC(=C2)NC3=NC=C(C(=N3)NCCC4=CN=CN4)Br
# In short: as §1
# [8] = compound: C1CN(CCC1(CC2=CC=C(C=C2)Cl)N)C3=NC=NC4=C3C=CN4
# In short: as §1
# IRAK-1-4 Inhibitor I = compound: C1COCCN1CCN2C3=CC=CC=C3N=C2NC(=O)C4=CC(=CC=C4)[N+](=O)[O-] [IRAK-1-4 Inhibitor I]
# In short: as §1
# ibrutinib = compound: C=CC(=O)N1CCC[C@@H](n2nc(-c3ccc(Oc4ccccc4)cc3)c3c(N)ncnc32)C1 [ibrutinib]
# In short: as §1
# [9] = compound: CC(=O)c1cnc2ccc(-c3cc(Cl)c(O)c(Cl)c3)nc2c1N[C@H]1CC[C@H](CN(C)C)CC1
# In short: as §1
# ralimetinib = compound: CC(C)(C)Cn1c(N)nc2ccc(-c3[nH]c(C(C)(C)C)nc3-c3ccc(F)cc3)nc21 [ralimetinib]
# In short: as §1
# [10] = compound: CC(C)(O)CC(=O)NCCn1ccc2ncnc(Nc3ccc(Oc4cccc(C(F)(F)F)c4)c(Cl)c3)c21
# In short: as §1
# [11] = compound: CC(C)C1=C2N=C(C=C(N2N=C1)NCC3=CC=CC=C3)NCCCCCCN
# In short: as §1
# [12] = compound: CC1=C(C(CC(=O)N1)C2=CC=C(C=C2)C(F)(F)F)C(=O)NC3=C(C=C4C(=C3)C=NN4)F
# In short: as §1
# [13] = compound: CC1=C(C2=C(C=C1)C(=O)C3=CC=CC=C3N2CCCN)C
# In short: as §1
# [14] = compound: CC1=C(C=C(C=C1)NC(=O)C2=CC(=CC=C2)C(C)(C)C#N)NC3=CC4=C(C=C3)N=CN(C4=O)C
# In short: as §1
# [15] = compound: CC1=C(C=C(C=C1)NC(=O)C2=CC(=CC=C2)N(C)C)NC(=O)C3=CC=C(C=C3)O
# In short: as §1
# [16] = compound: CC1=CC=C(C=C1)SC2=C3C=C(SC3=CN=C2)C(=O)N
# In short: as §1
Target,log2 fold change (erlotinib),log2 fold change [1],log2 fold change [2],log2 fold change [3],log2 fold change [4],log2 fold change [5],log2 fold change [6],log2 fold change [7],log2 fold change [8],log2 fold change (IRAK-1-4 Inhibitor I),log2 fold change (ibrutinib),log2 fold change [9],log2 fold change (ralimetinib),log2 fold change [10],log2 fold change [11],log2 fold change [12],log2 fold change [13],log2 fold change [14],log2 fold change [15],log2 fold change [16]
ABCB6 (UniProt Q9NP58),inactive: 0.039,inactive: -0.084,inactive: -0.011,inactive: -0.005,inactive: -0.018,inactive: -0.002,inactive: -0.045,inactive: -0.029,inactive: 0.026,inactive: -0.047,inactive: 0.022,inactive: 0.04,inactive: 0.01,inactive: -0.015,inactive: -0.047,inactive: -0.023,inactive: -0.082,inactive: 0.02,inactive: -0.042,inactive: -0.011
AAMP (UniProt Q13685),inactive: 0.005,inactive: 0.073,inactive: 0.005,inactive: -0.001,inactive: 0.013,inactive: 0.037,inactive: 0.018,inactive: 0.027,inactive: 0.001,inactive: 0.009,inactive: 0.023,inactive: 0.001,inactive: -0.009,inactive: -0.021,inactive: -0.041,inactive: -0.022,inactive: -0.01,inactive: 0.02,inactive: -0.049,inactive: -0.025
ACCS (UniProt Q96QU6),inactive: -0.002,inactive: -0.489,inactive: 0.093,inactive: -0.03,inactive: -0.008,inactive: 0.075,inactive: -0.078,inactive: -0.04,inactive: 0.135,inactive: 0.112,inactive: -0.028,inactive: 0.03,inactive: -0.094,inactive: -0.146,inactive: -0.024,inactive: -0.062,inactive: -0.141,inactive: 0.091,inactive: 0.088,inactive: -0.041
"A0A0B4J2A0, A0A0B4J2A0",inactive: 0.014,inactive: -0.01,inactive: 0.033,inactive: -0.048,inactive: 0.015,inactive: 0.017,inactive: -0.061,inactive: -0.011,inactive: 0.026,inactive: 0.021,inactive: 0.031,inactive: 0.039,inactive: 0.015,inactive: -0.079,inactive: -0.013,inactive: 0,inactive: -0.018,inactive: 0.002,inactive: 0.025,inactive: -0.004
AAMDC (UniProt Q9H7C9),inactive: 0.029,inactive: 0.064,inactive: -0.03,inactive: -0.027,inactive: 0.012,inactive: -0.025,inactive: 0.01,inactive: 0,inactive: 0.054,inactive: -0.049,inactive: 0.044,inactive: -0.046,inactive: 0.035,inactive: -0.024,inactive: 0.015,inactive: -0.002,inactive: 0.029,inactive: 0.055,inactive: 0.006,inactive: -0.014
ACAA2 (UniProt P42765),inactive: -0.012,inactive: -0.018,inactive: 0.033,inactive: -0.027,inactive: -0.008,inactive: 0.005,inactive: 0.034,inactive: -0.001,inactive: -0.008,inactive: 0.029,inactive: 0.026,inactive: -0.006,inactive: 0.011,inactive: -0.016,inactive: 0.009,inactive: -0.012,inactive: -0.024,inactive: -0.032,inactive: 0.011,inactive: -0.017
ACO1 (UniProt P21399),inactive: -0.026,inactive: 0.004,inactive: -0.015,inactive: 0.011,inactive: -0.006,inactive: -0.001,inactive: -0.01,inactive: -0.005,inactive: -0.018,inactive: -0.007,inactive: 0,inactive: -0.012,inactive: 0.023,inactive: 0.019,inactive: -0.024,inactive: -0.014,inactive: 0.017,inactive: -0.024,inactive: -0.025,inactive: 0.003
ACOT13 (UniProt Q9NPJ3),inactive: 0.021,inactive: -0.006,inactive: 0.037,inactive: 0.015,inactive: -0.001,inactive: 0.012,inactive: 0.027,inactive: 0.061,inactive: 0.034,inactive: -0.002,inactive: -0.056,inactive: 0.031,inactive: -0.04,inactive: -0.048,inactive: 0.006,inactive: -0.022,inactive: -0.021,inactive: 0.029,inactive: -0.027,inactive: -0.012
ACAP2 (UniProt Q15057),inactive: -0.011,inactive: -0.003,inactive: -0.012,inactive: -0.005,inactive: 0,inactive: -0.08,inactive: -0.022,inactive: -0.008,inactive: -0.027,inactive: 0.024,inactive: -0.013,inactive: 0.007,inactive: 0,inactive: -0.027,inactive: -0.001,inactive: 0.01,inactive: 0.018,inactive: -0.027,inactive: -0.008,inactive: -0.017
ABCC1 (UniProt P33527),inactive: 0.002,inactive: 0.03,inactive: -0.027,inactive: 0.004,inactive: 0.016,inactive: -0.008,inactive: -0.003,inactive: -0.009,inactive: 0.038,inactive: 0.023,inactive: 0.052,inactive: 0.111,inactive: -0.014,inactive: -0.021,inactive: 0.018,inactive: 0.006,inactive: -0.012,inactive: 0.015,inactive: -0.006,inactive: -0.042
ABHD16A (UniProt O95870),inactive: -0.009,inactive: -0.047,inactive: 0.03,inactive: 0.046,inactive: -0.042,inactive: 0.015,inactive: -0.016,inactive: 0.014,inactive: 0.064,inactive: -0.006,inactive: -0.01,inactive: 0.004,inactive: 0.029,inactive: 0.018,inactive: 0.027,inactive: -0.022,inactive: 0.03,inactive: -0.031,inactive: -0.077,inactive: -0.011
AAAS (UniProt Q9NRG9),inactive: 0.021,inactive: -0.119,inactive: -0.036,inactive: -0.014,inactive: -0.008,inactive: -0.01,inactive: -0.084,inactive: -0.001,inactive: 0.061,inactive: 0.019,inactive: -0.027,inactive: 0.022,inactive: 0.007,inactive: 0.024,inactive: -0.004,inactive: -0.012,inactive: -0.009,inactive: -0.031,inactive: 0.023,inactive: -0.001
ABHD10 (UniProt Q9NUJ1),inactive: -0.01,inactive: 0.011,inactive: 0.006,inactive: 0.001,inactive: -0.01,inactive: 0.012,inactive: -0.007,inactive: -0.031,inactive: 0.026,inactive: 0.006,inactive: -0.011,inactive: 0.01,inactive: -0.034,inactive: 0.031,inactive: 0,inactive: -0.01,inactive: -0.04,inactive: -0.007,inactive: 0.001,inactive: 0.006
ABCD3 (UniProt P28288),inactive: -0.1,active: 0.556,inactive: 0.217,inactive: -0.051,inactive: -0.055,inactive: -0.075,inactive: -0.031,inactive: -0.084,inactive: 0.044,inactive: -0.003,inactive: -0.035,inactive: -0.083,inactive: -0.067,inactive: 0.064,inactive: 0.185,inactive: 0.01,inactive: -0.096,inactive: -0.028,inactive: -0.073,inactive: -0.031
ABL2 (UniProt P42684),inactive: -0.046,inactive: 0.068,inactive: 0.053,inactive: -0.014,inactive: -0.013,inactive: 0.045,inactive: -0.003,inactive: -0.065,inactive: -0.141,inactive: -0.068,active: 0.586,inactive: 0.078,inactive: 0.005,inactive: 0.002,inactive: 0.002,inactive: -0.057,inactive: -0.112,inactive: 0.154,inactive: 0.093,inactive: -0.046

# Just log2 fold change [6], for some of the entries so far:
Target,log2 fold change [6]
ACOT13 (UniProt Q9NPJ3),inactive: 0.027
ABHD16A (UniProt O95870),inactive: -0.016
